# Source: PMC6261950
# No constants are given. Whether binding was seen depends on the method and setting. Binding seen in cells or lysates may run through a third protein. Some results given as binding are weak or reduced against the parent protein; the word gives no strength.
# Molecular target: H2AX (human (endogenous in 293T and HTB126)) (UniProt P16104)
# Experiment: co-IP; endogenous proteins in 293T lysate; immunoprecipitation with anti-H2AX or anti-p53 antibody, Western blotting; cells also transfected with vector, circ-Ccnb1, control oligo or p53 siRNA
substance,measurement,value
Bclaf1 (from UniProt Q9NYF8 1-920),binding,binds
